# The other results are listed elsewhere or left out.
# Sequences of proteins named here, by UniProt entry; tags and fusion partners are left off. A change or cut given only in a name is not applied to a line headed by its entry.
# UniProt Q07065: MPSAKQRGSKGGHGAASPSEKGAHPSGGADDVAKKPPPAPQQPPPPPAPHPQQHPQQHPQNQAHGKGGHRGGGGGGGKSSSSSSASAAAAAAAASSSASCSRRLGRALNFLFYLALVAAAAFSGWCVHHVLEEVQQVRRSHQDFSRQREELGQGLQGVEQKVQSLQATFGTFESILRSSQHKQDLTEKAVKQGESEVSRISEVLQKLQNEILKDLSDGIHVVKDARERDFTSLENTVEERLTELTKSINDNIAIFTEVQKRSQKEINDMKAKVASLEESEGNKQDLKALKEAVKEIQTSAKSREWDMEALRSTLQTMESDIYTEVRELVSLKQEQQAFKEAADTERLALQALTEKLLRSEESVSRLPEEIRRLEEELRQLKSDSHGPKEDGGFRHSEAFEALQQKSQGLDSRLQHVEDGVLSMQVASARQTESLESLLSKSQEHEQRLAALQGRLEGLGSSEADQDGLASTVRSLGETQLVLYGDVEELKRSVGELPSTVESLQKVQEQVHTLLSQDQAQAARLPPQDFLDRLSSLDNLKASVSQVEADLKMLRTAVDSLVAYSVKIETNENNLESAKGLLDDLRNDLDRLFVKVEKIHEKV
# UniProt P33552, whole entry, looked up: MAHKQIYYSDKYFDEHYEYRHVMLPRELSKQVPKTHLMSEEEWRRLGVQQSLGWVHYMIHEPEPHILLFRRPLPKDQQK
# UniProt O94985: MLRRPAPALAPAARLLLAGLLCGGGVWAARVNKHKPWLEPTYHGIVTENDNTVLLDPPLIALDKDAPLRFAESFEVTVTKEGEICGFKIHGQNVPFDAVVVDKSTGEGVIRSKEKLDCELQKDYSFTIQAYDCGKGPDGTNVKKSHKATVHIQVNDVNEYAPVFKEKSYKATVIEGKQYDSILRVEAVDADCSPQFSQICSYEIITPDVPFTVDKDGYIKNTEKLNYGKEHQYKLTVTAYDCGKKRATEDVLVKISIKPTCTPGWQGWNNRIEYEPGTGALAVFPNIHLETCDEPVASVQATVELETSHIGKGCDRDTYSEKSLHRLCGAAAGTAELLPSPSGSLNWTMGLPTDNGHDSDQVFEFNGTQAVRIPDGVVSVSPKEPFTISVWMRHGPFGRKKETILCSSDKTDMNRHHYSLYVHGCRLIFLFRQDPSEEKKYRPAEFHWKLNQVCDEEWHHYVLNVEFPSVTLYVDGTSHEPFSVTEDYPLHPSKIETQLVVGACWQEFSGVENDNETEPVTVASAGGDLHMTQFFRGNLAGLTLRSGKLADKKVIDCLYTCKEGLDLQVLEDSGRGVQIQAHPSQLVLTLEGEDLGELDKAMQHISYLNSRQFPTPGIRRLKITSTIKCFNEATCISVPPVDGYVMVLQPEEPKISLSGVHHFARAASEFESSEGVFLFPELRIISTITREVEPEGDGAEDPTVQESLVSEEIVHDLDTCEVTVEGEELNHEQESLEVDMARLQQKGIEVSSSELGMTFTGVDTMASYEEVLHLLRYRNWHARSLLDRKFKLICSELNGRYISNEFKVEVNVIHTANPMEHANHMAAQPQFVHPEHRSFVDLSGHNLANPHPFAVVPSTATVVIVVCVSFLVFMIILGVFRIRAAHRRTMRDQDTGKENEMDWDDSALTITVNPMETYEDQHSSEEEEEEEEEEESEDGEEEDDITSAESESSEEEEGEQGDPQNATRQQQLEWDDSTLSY
# UniProt P62633: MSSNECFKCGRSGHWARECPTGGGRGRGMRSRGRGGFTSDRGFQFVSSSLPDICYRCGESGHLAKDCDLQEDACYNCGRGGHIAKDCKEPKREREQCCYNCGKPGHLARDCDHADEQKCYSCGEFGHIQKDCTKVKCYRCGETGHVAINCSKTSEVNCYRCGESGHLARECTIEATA
# UniProt Q05707: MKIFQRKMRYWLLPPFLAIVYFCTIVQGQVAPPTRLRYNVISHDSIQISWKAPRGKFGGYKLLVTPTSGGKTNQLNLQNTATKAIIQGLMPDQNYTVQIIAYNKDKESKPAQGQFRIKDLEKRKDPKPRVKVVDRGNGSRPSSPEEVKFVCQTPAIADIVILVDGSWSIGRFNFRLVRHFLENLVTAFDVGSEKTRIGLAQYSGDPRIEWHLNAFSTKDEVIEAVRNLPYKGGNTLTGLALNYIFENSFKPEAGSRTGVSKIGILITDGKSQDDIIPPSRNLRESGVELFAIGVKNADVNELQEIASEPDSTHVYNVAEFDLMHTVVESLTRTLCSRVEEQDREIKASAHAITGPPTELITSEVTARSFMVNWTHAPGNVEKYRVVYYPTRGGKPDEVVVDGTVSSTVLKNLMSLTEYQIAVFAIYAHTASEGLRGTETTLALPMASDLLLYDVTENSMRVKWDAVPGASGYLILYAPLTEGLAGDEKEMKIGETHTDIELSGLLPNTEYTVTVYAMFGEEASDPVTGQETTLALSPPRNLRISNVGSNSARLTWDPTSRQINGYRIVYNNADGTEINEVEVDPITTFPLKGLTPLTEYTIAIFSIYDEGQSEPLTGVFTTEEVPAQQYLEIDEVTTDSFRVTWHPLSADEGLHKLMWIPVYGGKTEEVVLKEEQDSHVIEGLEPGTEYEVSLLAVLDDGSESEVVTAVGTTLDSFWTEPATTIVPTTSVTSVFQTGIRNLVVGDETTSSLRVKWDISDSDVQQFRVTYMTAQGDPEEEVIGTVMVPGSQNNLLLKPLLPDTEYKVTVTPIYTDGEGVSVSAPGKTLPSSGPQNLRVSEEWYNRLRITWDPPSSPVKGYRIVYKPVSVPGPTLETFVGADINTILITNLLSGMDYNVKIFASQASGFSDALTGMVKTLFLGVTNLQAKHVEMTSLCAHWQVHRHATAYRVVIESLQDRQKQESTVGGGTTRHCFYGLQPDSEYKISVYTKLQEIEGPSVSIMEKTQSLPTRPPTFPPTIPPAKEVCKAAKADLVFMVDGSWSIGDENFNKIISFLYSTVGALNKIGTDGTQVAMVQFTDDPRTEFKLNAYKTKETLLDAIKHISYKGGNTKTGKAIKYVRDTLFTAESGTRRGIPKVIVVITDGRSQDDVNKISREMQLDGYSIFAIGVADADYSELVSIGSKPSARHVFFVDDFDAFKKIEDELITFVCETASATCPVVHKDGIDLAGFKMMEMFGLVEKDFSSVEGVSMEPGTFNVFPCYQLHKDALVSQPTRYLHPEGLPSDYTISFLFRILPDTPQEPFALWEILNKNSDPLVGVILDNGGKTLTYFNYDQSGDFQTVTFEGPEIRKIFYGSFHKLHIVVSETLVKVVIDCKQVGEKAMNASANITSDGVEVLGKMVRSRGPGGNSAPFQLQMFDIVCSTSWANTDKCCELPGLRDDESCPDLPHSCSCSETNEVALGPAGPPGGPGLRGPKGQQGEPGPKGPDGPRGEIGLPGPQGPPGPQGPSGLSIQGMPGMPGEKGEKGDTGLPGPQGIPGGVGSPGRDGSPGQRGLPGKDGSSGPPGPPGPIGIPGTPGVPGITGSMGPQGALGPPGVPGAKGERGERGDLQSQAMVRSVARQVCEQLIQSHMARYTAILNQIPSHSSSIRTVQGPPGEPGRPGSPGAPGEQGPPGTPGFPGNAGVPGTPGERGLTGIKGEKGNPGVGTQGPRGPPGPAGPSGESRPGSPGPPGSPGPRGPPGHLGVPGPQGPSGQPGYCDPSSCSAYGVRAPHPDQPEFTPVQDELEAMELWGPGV
# UniProt O75122: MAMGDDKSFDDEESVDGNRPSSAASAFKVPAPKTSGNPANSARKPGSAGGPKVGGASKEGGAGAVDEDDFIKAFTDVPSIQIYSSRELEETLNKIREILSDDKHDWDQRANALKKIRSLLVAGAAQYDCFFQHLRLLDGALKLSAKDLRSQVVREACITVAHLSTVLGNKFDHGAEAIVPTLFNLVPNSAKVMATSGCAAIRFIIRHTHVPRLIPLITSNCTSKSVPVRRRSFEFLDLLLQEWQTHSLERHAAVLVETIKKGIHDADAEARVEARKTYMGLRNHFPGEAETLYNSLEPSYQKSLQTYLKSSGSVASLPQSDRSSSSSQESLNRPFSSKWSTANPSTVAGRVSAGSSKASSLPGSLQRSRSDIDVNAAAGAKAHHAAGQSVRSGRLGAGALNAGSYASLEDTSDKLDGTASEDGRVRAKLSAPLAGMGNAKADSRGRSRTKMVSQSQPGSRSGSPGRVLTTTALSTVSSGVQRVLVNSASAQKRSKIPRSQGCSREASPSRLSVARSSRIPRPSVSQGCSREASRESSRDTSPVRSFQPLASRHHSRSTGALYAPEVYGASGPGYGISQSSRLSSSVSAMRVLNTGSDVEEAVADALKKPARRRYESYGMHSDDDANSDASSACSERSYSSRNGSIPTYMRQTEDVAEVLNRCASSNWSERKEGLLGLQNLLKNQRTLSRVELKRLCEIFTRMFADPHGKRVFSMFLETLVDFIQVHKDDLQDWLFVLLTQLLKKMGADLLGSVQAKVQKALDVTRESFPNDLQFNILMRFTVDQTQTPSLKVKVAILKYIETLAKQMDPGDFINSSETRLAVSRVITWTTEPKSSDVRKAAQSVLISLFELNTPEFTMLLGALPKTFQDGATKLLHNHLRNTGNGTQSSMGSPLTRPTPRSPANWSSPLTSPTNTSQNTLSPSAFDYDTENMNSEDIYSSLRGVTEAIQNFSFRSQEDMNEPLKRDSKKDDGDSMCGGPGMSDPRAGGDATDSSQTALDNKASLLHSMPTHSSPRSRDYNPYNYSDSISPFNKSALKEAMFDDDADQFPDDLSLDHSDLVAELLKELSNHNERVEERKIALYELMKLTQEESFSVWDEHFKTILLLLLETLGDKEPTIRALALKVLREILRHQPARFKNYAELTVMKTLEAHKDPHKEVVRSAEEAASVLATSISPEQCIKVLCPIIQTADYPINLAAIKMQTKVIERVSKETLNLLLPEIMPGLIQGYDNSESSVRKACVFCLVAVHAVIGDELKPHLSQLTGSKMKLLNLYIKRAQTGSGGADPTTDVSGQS
# UniProt P51911: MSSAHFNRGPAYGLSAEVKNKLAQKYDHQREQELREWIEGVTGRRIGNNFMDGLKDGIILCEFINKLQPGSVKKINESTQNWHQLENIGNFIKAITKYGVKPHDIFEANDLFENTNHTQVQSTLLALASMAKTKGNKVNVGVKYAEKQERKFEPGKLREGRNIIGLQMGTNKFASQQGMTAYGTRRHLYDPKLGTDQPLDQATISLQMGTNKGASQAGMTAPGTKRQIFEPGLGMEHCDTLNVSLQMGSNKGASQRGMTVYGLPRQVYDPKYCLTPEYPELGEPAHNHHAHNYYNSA
# UniProt Q9NPF2: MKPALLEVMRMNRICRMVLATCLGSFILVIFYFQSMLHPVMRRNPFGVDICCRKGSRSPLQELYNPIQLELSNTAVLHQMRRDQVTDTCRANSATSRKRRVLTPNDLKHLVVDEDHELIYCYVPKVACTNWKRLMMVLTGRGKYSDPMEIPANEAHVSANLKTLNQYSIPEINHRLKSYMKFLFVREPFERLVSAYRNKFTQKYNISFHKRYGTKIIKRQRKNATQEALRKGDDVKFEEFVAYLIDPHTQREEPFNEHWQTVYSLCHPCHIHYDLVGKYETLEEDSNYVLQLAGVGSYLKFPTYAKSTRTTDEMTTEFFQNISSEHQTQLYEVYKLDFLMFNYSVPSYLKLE
# UniProt Q8IZR5: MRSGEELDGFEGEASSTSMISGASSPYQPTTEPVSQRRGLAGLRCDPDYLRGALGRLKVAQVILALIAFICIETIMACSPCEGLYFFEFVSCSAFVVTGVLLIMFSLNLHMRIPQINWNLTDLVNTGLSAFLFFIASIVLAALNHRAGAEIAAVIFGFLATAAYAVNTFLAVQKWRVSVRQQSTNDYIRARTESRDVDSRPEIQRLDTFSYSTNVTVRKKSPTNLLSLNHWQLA
# UniProt Q8IZ52: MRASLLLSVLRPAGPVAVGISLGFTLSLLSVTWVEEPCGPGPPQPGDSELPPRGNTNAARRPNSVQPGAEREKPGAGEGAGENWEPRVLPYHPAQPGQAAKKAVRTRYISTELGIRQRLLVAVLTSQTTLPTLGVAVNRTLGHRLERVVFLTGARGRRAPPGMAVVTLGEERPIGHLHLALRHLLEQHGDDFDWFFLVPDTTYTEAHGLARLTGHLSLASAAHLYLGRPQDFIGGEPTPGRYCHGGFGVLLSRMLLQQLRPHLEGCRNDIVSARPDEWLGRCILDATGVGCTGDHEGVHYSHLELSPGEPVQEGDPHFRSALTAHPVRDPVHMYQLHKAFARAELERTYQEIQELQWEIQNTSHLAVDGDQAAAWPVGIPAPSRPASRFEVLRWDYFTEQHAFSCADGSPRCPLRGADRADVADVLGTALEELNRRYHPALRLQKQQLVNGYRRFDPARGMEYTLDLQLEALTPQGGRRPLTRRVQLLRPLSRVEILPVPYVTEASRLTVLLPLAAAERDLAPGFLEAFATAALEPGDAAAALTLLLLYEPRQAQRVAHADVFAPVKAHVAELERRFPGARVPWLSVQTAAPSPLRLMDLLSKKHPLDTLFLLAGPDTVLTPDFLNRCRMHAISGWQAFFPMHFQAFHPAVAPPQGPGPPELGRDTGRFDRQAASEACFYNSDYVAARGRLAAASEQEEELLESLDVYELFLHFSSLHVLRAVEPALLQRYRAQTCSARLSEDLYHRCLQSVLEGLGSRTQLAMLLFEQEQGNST
# Key:
# Experiment in all cases: log2 fold change, soluble protein after heating vs DMSO (PISA); higher = thermal stabilisation; K562 cells, 10 uM, 30 min; active = over 0.2 and 3.5 SD of the protein, either way, in both replicates (recomputed)
# [1] = compound: CC[C@@H]1C(=O)N(C)c2cnc(Nc3ccc(C(=O)NC4CCN(C)CC4)cc3OC)nc2N1C1CCCC1
# How it was run: (§1)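 K562 cells at 2×10^6 cells/mL were treated with 10 μM compound for 30 min. Aliquots were heated for 3 min across 48°C-58°C, pooled, and extracted in PBS with 0.5% NP-40 at 4°C; soluble protein was the supernatant after 21,000xg for 90 min. Soluble protein was quantified by TMTpro 16plex LC-MS/MS with channel sums equalised, and reported as log2 fold change in thermal stability against DMSO controls, with values from duplicates.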
# [2] = compound: CC[C@@H]1C(=O)N(C)c2cnc(Nc3ccc(C(=O)N[C@H]4CC[C@H](N5CCN(CC6CC6)CC5)CC4)cc3OC)nc2N1C(C)C [volasertib]
# How it was run: as §1
# [3] = compound: CC[C@H](C)N1C=C(C2=C(C=C(C=C21)C3=CN=C(C=C3)N4CCNCC4)C(=O)NCC5=C(C=C(NC5=O)C)C)C
# How it was run: as §1
# [4] = compound: CC[C@H](C)[C@@H](C(=O)N[C@@H]([C@@H](C)O)C(=O)N[C@@H](CC(C)C)C(=O)[C@]1(CO1)C)NC(=O)[C@H]([C@@H](C)CC)N(C)C(=O)C [epoxomicin]
# How it was run: as §1
# [5] = compound: CCn1cc(-c2ccnc3[nH]c(-c4cccc(CN(C)C)c4)cc23)c(-c2ccc(NC(=O)N(C)C)cc2)n1
# How it was run: as §1
# [6] = compound: CN1C2=C(C3=C1C(=O)N(N=C3)CC4=CC(=CC=C4)N)SC(=C2)S(=O)C
# How it was run: as §1
# [7] = compound: CN1CCC(CNc2ccc3ncc(-c4cccc(OC(F)(F)F)c4)n3n2)CC1
# How it was run: as §1
# [8] = compound: CN1CCN(CCOc2cc(OC3CCOCC3)c3c(Nc4c(Cl)ccc5c4OCO5)ncnc3c2)CC1 [saracatinib]
# How it was run: as §1
# [9] = compound: CN1CCN(c2nc(C3=C(c4c[nH]c5ccccc45)C(=O)NC3=O)c3ccccc3n2)CC1 [sotrastaurin]
# How it was run: as §1
# [10] = compound: CN1CCc2c(c3ccccc3n2Cc2ccc(C(=O)NO)cc2)C1 [Tubastatin A]
# How it was run: as §1
# [11] = compound: CNCc1ccc(-c2[nH]c3cc(F)cc4c3c2CCNC4=O)cc1 [rucaparib]
# How it was run: as §1
# [12] = compound: CNc1nc(-c2ccc3c(N)n[nH]c3c2)cc(N2C[C@@H](C(=O)NC3CCCCC3)CC[C@H]2C)n1
# How it was run: as §1
# [13] = compound: COC(=O)N[C@@H](C)CNc1nccc(-c2cn(C(C)C)nc2-c2cc(Cl)cc(NS(C)(=O)=O)c2F)n1 [encorafenib]
# How it was run: as §1
# [14] = compound: CN(C)CC(=O)Nc1ccc2[nH]c(=O)c3ccccc3c2c1
# How it was run: as §1
# [15] = compound: CN1CC[C@H](c2c(O)cc(O)c3c(=O)cc(-c4ccccc4Cl)oc23)[C@H](O)C1 [alvocidib]
# How it was run: as §1
# [16] = compound: CNC(=O)c1ccc(Nc2ncc(C(F)(F)F)c(NCc3nccnc3N(C)S(C)(=O)=O)n2)cc1 [defactinib]
# How it was run: as §1
# [17] = compound: COC(=O)[C@H](CCSC)NC(=O)C1=C(C=C(C=C1)NC[C@H](CS)N)C2=CC=CC=C2
# How it was run: as §1
# [18] = compound: CCn1c(C(=O)N(C2CC2)C2CC2)cc2c3c(ncn3C)c(Nc3cc(C)n(C)n3)nc21
# How it was run: as §1
# [19] = compound: CN(CCOC1=CC=C(C=C1)C[C@H]2C(=O)NC(=O)S2)C3=CC=CC=N3 (racemic) [rosiglitazone]
# How it was run: as §1
# [20] = compound: CNC(=O)C1=CC=CC=C1NC2=NC(=NC=C2Cl)NC3=C(C=C(C=C3)N4CCOCC4)OC
# How it was run: as §1
Target,log2 fold change [1],log2 fold change [2],log2 fold change [3],log2 fold change [4],log2 fold change [5],log2 fold change [6],log2 fold change [7],log2 fold change [8],log2 fold change [9],log2 fold change [10],log2 fold change [11],log2 fold change [12],log2 fold change [13],log2 fold change [14],log2 fold change [15],log2 fold change [16],log2 fold change [17],log2 fold change [18],log2 fold change [19],log2 fold change [20]
CHPT1 (UniProt Q8WUD6),inactive: -0.324,inactive: -0.228,inactive: 0.119,inactive: -0.176,inactive: -0.042,inactive: 0.047,active: -0.79,inactive: -0.066,inactive: -0.016,inactive: -0.08,inactive: -0.069,inactive: 0.034,inactive: 0.103,,,,,,,
CKAP4 (UniProt Q07065),inactive: -0.144,inactive: -0.05,inactive: 0.057,,,inactive: 0.07,,inactive: -0.06,inactive: -0.036,inactive: 0.015,inactive: -0.04,inactive: 0.055,inactive: 0.099,inactive: 0.02,inactive: -0.007,inactive: -0.054,inactive: -0.018,,,
COL1A1 (UniProt P02452),inactive: -0.098,inactive: 0.014,,inactive: -0.391,,inactive: 0.29,,inactive: 0.084,inactive: 0.321,inactive: -0.213,inactive: -0.281,inactive: -0.002,inactive: -0.292,inactive: -0.113,inactive: 0.147,inactive: 0.206,inactive: 0.42,inactive: -0.135,inactive: 0.247,inactive: -0.038
CLASRP (UniProt Q8N2M8),inactive: -0.33,,inactive: 0.07,inactive: 0.016,inactive: -0.109,,inactive: 0.058,,inactive: -0.046,,inactive: -0.04,,inactive: -0.189,,inactive: -0.018,,,inactive: -0.114,inactive: 0.035,inactive: -0.071
CKS2 (UniProt P33552),inactive: 0.01,inactive: -0.044,inactive: 0.029,,inactive: -0.23,inactive: 0.023,active: 0.594,inactive: -0.044,,inactive: 0.031,inactive: 0.025,inactive: -0.101,inactive: 0.078,,,,,,,
CLSTN1 (UniProt O94985),inactive: 0.241,inactive: 0.125,,,inactive: 0.244,inactive: -0.14,inactive: -0.273,inactive: -0.333,inactive: 0.31,inactive: -0.122,inactive: -0.199,inactive: -0.222,inactive: -0.179,,inactive: -0.041,,,,inactive: 0.069,
CHURC1-FNTB (UniProt B4DL54),inactive: -0.111,inactive: -0.249,,inactive: 0.073,inactive: 0.008,,inactive: -0.149,,inactive: 0.024,inactive: 0.059,inactive: 0.002,,inactive: -0.028,inactive: -0.047,,inactive: -0.144,inactive: -0.174,inactive: 0.047,inactive: 0.027,inactive: -0.032
CLCN5 isoform 2 (UniProt P51795),inactive: -0.299,,inactive: 0.151,,inactive: 0.172,inactive: 0.098,inactive: -0.267,inactive: -0.001,,inactive: -0.006,inactive: 0.097,inactive: -0.116,inactive: 0.075,inactive: 0.046,,inactive: -0.033,inactive: -0.025,,,inactive: 0.009
CLN3 (UniProt Q13286),inactive: -0.003,inactive: 0.055,inactive: -0.038,inactive: 0.09,,inactive: 0.074,,inactive: 0.046,,inactive: 0.065,inactive: 0.082,inactive: -0.097,inactive: -0.053,inactive: -0.001,,inactive: -0.039,inactive: 0.149,,,inactive: 0.004
CNBP (UniProt P62633),inactive: 0.021,inactive: 0.104,inactive: -0.055,,inactive: 0.044,inactive: -0.013,inactive: 0.17,inactive: -0.083,inactive: 0.15,,inactive: 0.124,inactive: -0.023,inactive: -0.065,,inactive: 0.053,,,inactive: 0.033,inactive: -0.075,inactive: -0.013
COL14A1 (UniProt Q05707),inactive: 0.018,inactive: -0.043,inactive: 0.039,inactive: 0,inactive: 0.053,inactive: 0.139,inactive: 0.031,inactive: 0.017,inactive: 0.127,inactive: 0.013,inactive: 0.061,inactive: -0.174,inactive: -0.107,inactive: -0.145,,inactive: -0.068,inactive: -0.016,,,
CNOT6 (UniProt Q9ULM6),inactive: 0.039,,inactive: 0.024,,inactive: -0.173,inactive: 0.058,inactive: -0.008,inactive: -0.003,inactive: -0.113,,inactive: -0.006,inactive: 0.088,inactive: 0.113,inactive: -0.023,inactive: -0.111,inactive: -0.037,inactive: -0.037,inactive: -0.377,inactive: -0.121,inactive: 0.176
CLINT1 (UniProt Q14677),inactive: -0.022,,inactive: 0.021,inactive: -0.035,,inactive: -0.218,,inactive: -0.003,,inactive: -0.029,inactive: 0.128,inactive: -0.062,inactive: -0.045,inactive: -0.075,,inactive: -0.002,inactive: 0.036,,,
CLASP2 (UniProt O75122),inactive: -0.104,inactive: -0.123,inactive: 0.083,,,,,,,,inactive: 0,,inactive: 0.098,,,,,,,inactive: 0
CNN1 (UniProt P51911),inactive: -0.049,inactive: -0.066,inactive: -0.066,inactive: -0.015,inactive: -0.403,,inactive: -0.192,,inactive: 0.15,inactive: 0.126,inactive: 0.102,,inactive: -0.046,inactive: -0.007,,inactive: -0.028,inactive: 0.043,,,
CHST11 (UniProt Q9NPF2),inactive: -0.215,inactive: -0.187,inactive: -0.078,inactive: 0.011,inactive: -0.017,,inactive: 0.022,,inactive: -0.02,inactive: 0.08,inactive: 0.083,,inactive: 0.177,inactive: -0.045,,inactive: -0.003,inactive: -0.048,,,inactive: 0.079
CLN6 (UniProt Q9NWW5),inactive: -0.078,inactive: 0.106,inactive: -0.034,inactive: 0.062,,,,,inactive: 0,inactive: -0.04,inactive: 0,,inactive: -0.084,inactive: 0.007,inactive: 0.145,inactive: -0.046,inactive: 0.177,,inactive: 0.006,
CMTM4 (UniProt Q8IZR5),inactive: 0.212,,inactive: 0.084,inactive: -0.002,,,,,inactive: -0.046,inactive: -0.141,inactive: 0.015,,inactive: -0.034,inactive: -0.043,,inactive: 0.062,inactive: 0.089,,inactive: -0.037,
CLIC6 (UniProt Q96NY7),inactive: -0.012,,inactive: -0.053,inactive: -0.041,,inactive: -0.229,,inactive: -0.039,inactive: 0.077,inactive: -0.01,inactive: -0.133,inactive: -0.284,inactive: -0.007,inactive: 0.073,,inactive: 0.012,inactive: 0.105,,inactive: 0.034,
CHPF (UniProt Q8IZ52),inactive: -0.025,inactive: -0.053,inactive: -0.085,inactive: -0.11,,inactive: 0.171,,inactive: -0.054,inactive: -0.002,inactive: 0.14,inactive: 0.03,inactive: -0.094,inactive: 0.106,inactive: -0.182,inactive: -0.038,inactive: 0.208,inactive: 0.019,,inactive: 0.072,
CIAO2B (UniProt Q9Y3D0),inactive: 0.041,inactive: -0.398,inactive: 0.053,,,inactive: -0.122,,inactive: -0.063,inactive: -0.075,,inactive: -0.007,inactive: -0.186,inactive: 0.059,,inactive: 0.144,,,inactive: -0.026,inactive: 0.013,inactive: 0.024

# Five entries from above, with tabs:
Target	log2 fold change [1]	log2 fold change [2]	log2 fold change [3]	log2 fold change [4]	log2 fold change [5]	log2 fold change [6]	log2 fold change [7]	log2 fold change [8]	log2 fold change [9]	log2 fold change [10]	log2 fold change [11]	log2 fold change [12]	log2 fold change [13]	log2 fold change [14]	log2 fold change [15]	log2 fold change [16]	log2 fold change [17]	log2 fold change [18]	log2 fold change [19]	log2 fold change [20]
CLN3 (UniProt Q13286)	inactive: -0.003	inactive: 0.055	inactive: -0.038	inactive: 0.09		inactive: 0.074		inactive: 0.046		inactive: 0.065	inactive: 0.082	inactive: -0.097	inactive: -0.053	inactive: -0.001		inactive: -0.039	inactive: 0.149			inactive: 0.004
CHST11 (UniProt Q9NPF2)	inactive: -0.215	inactive: -0.187	inactive: -0.078	inactive: 0.011	inactive: -0.017		inactive: 0.022		inactive: -0.02	inactive: 0.08	inactive: 0.083		inactive: 0.177	inactive: -0.045		inactive: -0.003	inactive: -0.048			inactive: 0.079
CLN6 (UniProt Q9NWW5)	inactive: -0.078	inactive: 0.106	inactive: -0.034	inactive: 0.062					inactive: 0	inactive: -0.04	inactive: 0		inactive: -0.084	inactive: 0.007	inactive: 0.145	inactive: -0.046	inactive: 0.177		inactive: 0.006	
CMTM4 (UniProt Q8IZR5)	inactive: 0.212		inactive: 0.084	inactive: -0.002					inactive: -0.046	inactive: -0.141	inactive: 0.015		inactive: -0.034	inactive: -0.043		inactive: 0.062	inactive: 0.089		inactive: -0.037	
CIAO2B (UniProt Q9Y3D0)	inactive: 0.041	inactive: -0.398	inactive: 0.053			inactive: -0.122		inactive: -0.063	inactive: -0.075		inactive: -0.007	inactive: -0.186	inactive: 0.059		inactive: 0.144			inactive: -0.026	inactive: 0.013	inactive: 0.024

# Source: the supplement of paper PMC10849652
